Values joined by “and” are separate entries in the source; they are usually repeats but may differ in a detail not shown here. Equal entries are not always repeated. The inconclusive results got no clear call from the source; some entries with a clear call stand among them for comparison. A call without a number means that no potency is given here. Where the call is inconclusive, the potency comes from a doubtful curve fit. Active and inactive are the calls of the source. Unless noted, calls come from the whole dose curve.
How the values were obtained:
[1] = cAMP Responsive Elements (CRE) small molecule antagonists, cell-based qHTS assay (AID 1963591; active = well fitted inhibition curve with a large enough effect in the signal ratio in the repeat runs, not every such curve was filed as active; inconclusive = weak or mixed curves, or effect the other way; the % refers to the signal ratio); details: CRE-bla HEK293T, beta-lactamase FRET ratio; activity change, negative = inhibition: at 92.4 µM (top of the series) unless noted
How it was run: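 CRE-bla HEK293T cells plated 18 h, then given compound plus NKH477 at 0.25 uM final for 3 h at 37C. Beta-lactamase reporter read with LiveBLAzer B/G FRET substrate after 2 h at room temperature.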

[2] = target: Beta-2 adrenergic receptor (Homo sapiens) (UniProt P07550); assay: Adrenergic beta2 receptor (ADRB2) small molecule agonists, cell-based qHTS assay (AID 1963593); details: CHO-ADRB2 cells, cAMP HTRF, 30 min; activation: at 92.4 µM (top of the series) unless noted;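 for activation: CHO cells stably overexpressing human ADRB2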
How it was run: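 CHO cells stably over-expressing ADRB2 were plated overnight at 37C, then dosed with compounds plus a stimulation mix containing 100uM IBMX and 25uM Ro-20-1724 for 0.5hr at room temperature. cAMP was measured by HTRF competition, 1hr.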
Potency is the fitted concentration of half-maximal effect.

SMILES	Potency [1]	activation [2]	Potency [2]	activity change, negative = inhibition [1]
SCCOCCOCCS	inactive	inconclusive: -27.7%	–	–
CC(C)(O)C#CC(C)(C)O	inactive	–	inconclusive: 22.1 µM [inhibitor, partial curve, poor fit]	–
C=CCOC(=O)CCCCCC	inactive	–	inactive	–
CCCCCCCCCCCCCCCCCC(=O)OCC(CC)CCCC (centres undefined)	inactive	inconclusive: 1.19%	–	–
CN(C)c1nc(N(C)C)nc(N(C)C)n1	inactive	–	inconclusive: 13.3 µM [activator, single point]	–
Cc1ncc(CO)c(C=O)c1O	–	inconclusive: 20.4% [at 42.5 µM]	–	inconclusive: -5.54% [at 42.4 µM]
COC(=O)CCS	inactive	–	inconclusive: 0.0763 µM [inhibitor, full curve, poor fit]	–
Cc1ccc2sc3cccc(C)c3c2c1	inactive	inconclusive: -31.4%	–	–
CN1CCC[C@@H]1c1cccnc1	inactive	–	inactive	–
C/C(=N\O)[C@@H](C)NCC(C)(C)CN[C@H](C)/C(C)=N/O	inactive	inconclusive: 35.8% [at 42.5 µM]	–	–
NCCN1CCNCC1	inactive	–	inconclusive: 0.438 µM [inhibitor, single point]	–
CC/C=C\CCOC(=O)C(C)C	inactive	–	inactive	–
O=C1CC[C@H](C(=O)N2CCCCC2)N1	inactive	inconclusive: 9.73% [at 42.5 µM]	–	–
O[C@@H]([C@H](O)[C@H](O)CBr)[C@H](O)CBr	inactive	–	inactive	–
N[C@@H](CCC(=O)Nc1ccc([N+](=O)[O-])cc1)C(=O)O	inactive	–	inactive	–
c1ccc(CCCc2ccccn2)cc1	inactive	inconclusive: -11.4%	–	–
Clc1ccc(Cl)c(Cl)c1Cl	inconclusive: 0.0227 µM [falling, full curve, poor fit]	inconclusive: 27.5% and inconclusive: 1.91%	–	–
Cc1ccc(C(C)OC(=O)C2(C)CCC(C(=O)O)C2(C)C)cc1 (centres undefined)	inconclusive: 21.1 µM [activator]	inconclusive: -0.538% [at 42.5 µM]	–	–
Cc1cccc(C)c1NC(=O)c1cc(S(N)(=O)=O)c(Cl)cc1O	inactive	inconclusive: 3.64% [at 42.5 µM]	–	–

SMILES	Potency [1]	activation [2]	Potency [2]	activity change, negative = inhibition [1]
O=C[C@H](O)[C@@H](O)[C@H](O)[C@H](O)CO	inactive	–	inactive	–
CC(C)Nc1nc(N)nc(Cl)n1	inconclusive: 24.3 µM [activator]	inconclusive: -2.56%	–	–
O=C(O)CCn1c2c(c3ccccc31)C[C@H](NS(=O)(=O)c1ccc(F)cc1)CC2	–	inconclusive: -36.6% [at 42.5 µM]	–	inconclusive: 11.9% [at 42.4 µM]
COC(=O)CS	–	inconclusive: 11.5%	–	inconclusive: 23.1%
Clc1cc(Cl)c(-c2c(Cl)c(Cl)cc(Cl)c2Cl)cc1Cl	inactive	–	inconclusive: 0.298 µM [inhibitor, single point]	–
Cc1ccccc1N=O	inactive	–	inconclusive: 7.03 µM [inhibitor, single point]	–
O=C(O)c1cccc(C(=O)O)c1C(=O)O	–	–	inactive	inconclusive: 2.54%
CN=C(NC#N)NCCSCc1nc[nH]c1C	–	inconclusive: 1.97% [at 42.5 µM]	–	inconclusive: 6.71%
CC(C)(C)S	inactive	inconclusive: 18.3%	–	–
CO[Si](CCCCl)(OC)OC	inactive	–	inactive	–
O=C(O)c1cccnc1C(=O)O	inactive	–	inactive	–
COc1c(Cl)c(Cl)c(Cl)c(Cl)c1Cl	inactive	inconclusive: 2.69%	–	–
OC[C@H]1O[C@@H](O[C@H]2[C@H](O)[C@@H](O)[C@H](O)O[C@@H]2CO)[C@H](O)[C@@H](O)[C@H]1O	inactive	–	inactive	–
Cc1ccc2cccnc2c1	–	–	inactive	inconclusive: 4.09%
CCCCOC(O)CC (centres undefined)	inactive	–	inactive	–
NNc1nc(-c2ccccc2)cs1	–	inconclusive: -19.5%	–	inconclusive: -25.2%
COc1ccc([C@@H]2Sc3ccccc3N(CCN(C)C)C(=O)[C@@H]2OC(C)=O)cc1	inconclusive: 29.8 µM [activator, partial curve, poor fit]	–	inactive	–
CC(C)(Sc1cc(C(C)(C)C)c(O)c(C(C)(C)C)c1)Sc1cc(C(C)(C)C)c(O)c(C(C)(C)C)c1	–	–	inconclusive: 26.6 µM [inhibitor, partial curve, poor fit]	inconclusive: -11.1% [at 42.4 µM]

Entries of single compounds, looked up by structure.
COC(=O)CS reads activation [2]: inconclusive: 11.5%; activity change, negative = inhibition [1]: inconclusive: 23.1%
CCCCOC(O)CC (centres undefined) reads Potency [1]: inactive; Potency [2]: inactive
